Earlier results as cited in patent US20240009155A1, “USE OF SHORT CHAIN FATTY ACIDS IN CANCER PREVENTION” (priority 2020, published 2024).
At least one structure is not confirmed: it was looked up by name or label, or the drawing left a doubt.

System: HepG2.2.15 cells
Details: prior observations

## CCCC(=O)O [butyrate]
  proliferation of HepG2.2.15 cells: inhibits
